Test results: publication PMC10447549

Chains of the proteins cited; added tags and fusions are not shown. Lines headed by an entry give the natural chain unless they say otherwise; changes in a name come on top.
UniProt Q16254: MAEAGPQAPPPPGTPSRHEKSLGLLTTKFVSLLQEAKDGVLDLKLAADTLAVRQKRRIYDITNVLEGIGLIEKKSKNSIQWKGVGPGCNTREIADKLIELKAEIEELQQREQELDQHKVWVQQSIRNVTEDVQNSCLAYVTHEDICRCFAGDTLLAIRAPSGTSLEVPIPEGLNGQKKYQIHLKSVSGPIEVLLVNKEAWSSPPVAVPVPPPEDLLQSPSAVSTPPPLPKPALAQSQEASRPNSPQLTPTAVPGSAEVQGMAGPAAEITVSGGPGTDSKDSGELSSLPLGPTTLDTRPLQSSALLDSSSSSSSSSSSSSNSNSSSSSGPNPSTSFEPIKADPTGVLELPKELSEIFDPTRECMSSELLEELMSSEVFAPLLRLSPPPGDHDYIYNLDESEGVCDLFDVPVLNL
UniProt P46063: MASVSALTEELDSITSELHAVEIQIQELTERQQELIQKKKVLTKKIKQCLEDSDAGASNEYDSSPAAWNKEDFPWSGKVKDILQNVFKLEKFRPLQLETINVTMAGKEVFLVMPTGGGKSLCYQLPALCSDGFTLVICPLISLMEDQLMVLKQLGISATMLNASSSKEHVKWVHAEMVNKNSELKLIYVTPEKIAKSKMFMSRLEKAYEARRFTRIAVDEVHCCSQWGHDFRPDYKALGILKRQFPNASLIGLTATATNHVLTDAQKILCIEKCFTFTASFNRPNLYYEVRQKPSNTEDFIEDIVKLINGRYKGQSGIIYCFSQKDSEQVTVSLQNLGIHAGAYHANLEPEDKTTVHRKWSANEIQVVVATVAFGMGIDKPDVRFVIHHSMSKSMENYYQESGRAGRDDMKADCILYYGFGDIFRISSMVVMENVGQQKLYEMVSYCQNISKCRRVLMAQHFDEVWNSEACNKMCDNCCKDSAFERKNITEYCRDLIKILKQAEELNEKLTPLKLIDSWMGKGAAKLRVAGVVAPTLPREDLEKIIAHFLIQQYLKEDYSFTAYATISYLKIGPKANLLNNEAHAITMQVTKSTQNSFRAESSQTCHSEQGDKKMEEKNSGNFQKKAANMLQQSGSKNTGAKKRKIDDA

Biological target: GST-E2f4 C-terminal fragment (amino acids 300-413) (human (ORF amplified from HCT116 mRNA)) (UniProt Q16254)
Test: pull-down; GST-E2f4 fusion proteins on glutathione agarose beads, washed with TNT-300 buffer, incubated 4 h with U2OS or shTrim33 U2OS whole cell lysates; immunoblot; only the target purified

binding: binds
Substance: Recql (endogenous, U2OS) (from UniProt P46063 1-649)

No constants are given. Whether binding was seen depends on the method and setting. Binding seen in cells or lysates may run through a third protein. A result given as binding can be weak or reduced; the word gives no strength.
